# Values quoted from earlier work in patent US5866617A, “Formulations and methods of use 2,2'-dithio-bis-esthane sulfonate” (BioNumerik Pharmaceuticals, Inc., priority 1997, dated 1999).
# At least one read-out could not be matched to a standard name with certainty.
# Conditions: in vivo; cited from earlier work
smiles,measurement,value
O=S(=O)([O-])CCSSCCS(=O)(=O)[O-].[Na+].[Na+],dimesna reduced to mesna in the renal tubular epithelium after glomerular filtration,about 50%
